± gives the standard deviation of the averaged measurements. Most values lie at the level of the controls, where differences are scatter.
Key:
Experiment in all cases: level (log10 ratio to DMSO vehicle control); higher = higher biomarker level / cell amount than vehicle control
[1] = compound: C=CC(=O)OCC(F)(F)C(F)(F)C(F)(F)C(F)(F)C(F)(F)C(F)(F)C(F)(F)C(F)F [1H,1H,9H-Perfluorononyl acrylate]; conditions: 2200 nM; in DMSO
Procedure: (§1)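 BioMAP Diversity Plus panel of 12 human primary cell co-culture systems (3C, 4H, LPS, SAg, BT, BF4T, BE3C, CASM3C, HDF3CGF, KF3CT, MyoF, Mphg). Compounds were added 1 h before stimulation and left for 24 h (MyoF 48 h; BT 72 h for soluble read-outs or 6 d for IgG). Biomarkers were read by ELISA, cytotoxicity by SRB, PBMC viability and proliferation by Alamar Blue. Each well value was divided by the mean of 8 DMSO control wells on the same plate and log10 transformed; duplicate blinded samples were tested at 4 concentrations.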

[2] = compound: CCOC(=O)CC(=O)C(F)(F)C(F)(F)F [Ethyl pentafluoropropionyl acetate]; conditions: 2200 nM; in DMSO
Procedure: as §1

[3] = compound: FC(F)(F)C(F)(F)C(F)(F)C(F)(F)C(F)(F)C(F)(F)C(F)(F)C(F)(F)CCS [2-(Perfluorooctyl)ethanthiol]; conditions: in DMSO
Procedure: as §1

[4] = compound: N=C(N)C(F)(F)C(F)(F)C(F)(F)C(F)(F)C(F)(F)C(F)(F)C(F)(F)F [Perfluorooctanamidine]; conditions: in DMSO
Procedure: as §1

[5] = compound: O=C(CC(=O)C(F)(F)C(F)(F)C(F)(F)F)c1cccs1 [(Perfluorobutyryl)-2-thenoylmethane]; conditions: 2200 nM; in DMSO
Procedure: as §1

[6] = compound: O=C(O)C(F)(F)C(F)(F)C(F)(F)C(F)(F)C(F)(F)C(F)(F)C(F)(F)C(F)(F)C(F)(F)F [Perfluorodecanoic acid]; conditions: in DMSO
Procedure: as §1

[7] = compound: O=C(O)C(F)(F)C(F)(F)C(F)(F)C(F)(F)C(F)(F)C(F)(F)C(F)(F)C(F)(F)F [Perfluorononanoic acid]; conditions: 2200 nM; in DMSO
Procedure: as §1

[8] = compound: O=C(O)C(F)(F)C(F)(F)C(F)(F)C(F)(F)C(F)(F)C(F)(F)C(F)(F)F [Ammonium perfluorooctanoate]; conditions: 2200 nM; in DMSO
Procedure: as §1

[9] = compound: O=C(O)C(F)(F)C(F)(F)C(F)(F)C(F)(F)C(F)(F)C(F)(F)C(F)(F)F [Perfluorooctanoic acid]; conditions: 2200 nM; in DMSO
Procedure: as §1

[10] = compound: O=C(O)C(F)(F)OC(F)(F)C(F)(F)OC(F)(F)C(F)(F)OC(F)(F)C(F)(F)C(F)(F)C(F)(F)F [Perfluoro-3,6,9-trioxatridecanoic acid]; conditions: 2200 nM; in DMSO
Procedure: as §1

[11] = compound: O=C(O)C(F)(F)OC(F)(F)C(F)(F)OC(F)(F)F [Perfluoro-3,6-dioxaheptanoic acid]; conditions: 2200 nM; in DMSO
Procedure: as §1

[12] = compound: O=C(O)CCC(F)(C(F)(F)F)C(F)(F)F [4,4-bis(Trifluoromethyl)-4-fluoropropanoic acid]; conditions: 2200 nM; in DMSO
Procedure: as §1

[13] = compound: OCC(F)(F)C(F)(F)C(F)(F)C(F)(F)C(F)(F)C(F)(F)C(F)(F)C(F)(F)CO [1H,1H,10H,10H-Perfluorodecane-1,10-diol]; conditions: 2200 nM; in DMSO
Procedure: as §1

[14] = compound: OCC(F)(F)OC(F)(F)C(F)(F)OC(F)(F)C(F)(F)OC(F)(F)CO [1H,1H,11H,11H-Perfluorotetraethylene glycol]; conditions: 2200 nM; in DMSO
Procedure: as §1

| Test System | level (log10) [1] | level (log10) [2] | level (log10) ([3]; 740 nM) | level (log10) ([3]; 2200 nM) | level (log10) ([4]; 2200 nM) | level (log10) ([4]; 6700 nM) | level (log10) ([4]; 20000 nM) | level (log10) ([4]; 60000 nM) | level (log10) [5] | level (log10) ([6]; 2200 nM) | level (log10) ([6]; 6700 nM) | level (log10) ([6]; 20000 nM) | level (log10) [7] | level (log10) [8] | level (log10) [9] | level (log10) [10] | level (log10) [11] | level (log10) [12] | level (log10) [13] | level (log10) [14] |
| --- | --- | --- | --- | --- | --- | --- | --- | --- | --- | --- | --- | --- | --- | --- | --- | --- | --- | --- | --- | --- |
| HDF3CGF:CD106/VCAM-1 | -0.057 ± 0.072 | -0.0025 ± 0.063 | 0.0005 ± 0.005 | 0.006 ± 0.023 | -0.037 ± 0.0099 | -0.0215 ± 0.013 | -0.132 ± 0.018 | -0.214 | -0.02 ± 0.0099 | -0.099 ± 0.073 | -0.0085 ± 0.026 | -0.623 ± 0.057 | -0.106 ± 0.11 | -0.0335 ± 0.05 | -0.001 ± 0.021 | -0.0175 ± 0.029 | -0.0555 ± 0.059 | -0.0395 ± 0.04 | -0.023 ± 0.014 | 0.0005 ± 0.021 |
| HDF3CGF:Proliferation 72hr | -0.0775 ± 0.053 | -0.0505 ± 0.1 | -0.014 ± 0.0014 | 0.0005 ± 0.00071 | -0.0655 ± 0.052 | -0.0255 ± 0.043 | -0.0515 ± 0.1 | -0.564 | -0.0715 ± 0.029 | 0.09 ± 0.0085 | 0.115 ± 0.025 | -0.934 ± 0.037 | 0.0685 ± 0.05 | -0.0245 ± 0.037 | 0.0225 ± 0.0064 | 0.0985 ± 0.052 | -0.0215 ± 0.029 | -0.064 | -0.0345 ± 0.04 | -0.075 ± 0.095 |
| HDF3CGF:Collagen III | -0.0585 ± 0.066 | -0.036 ± 0.078 | -0.0015 ± 0.021 | -0.0195 ± 0.04 | -0.008 | -0.047 ± 0.018 | -0.196 ± 0.045 | -0.172 | 0.0305 ± 0.053 | 0.102 ± 0.016 | -0.08 ± 0.058 | -0.0755 ± 0.021 | -0.0695 ± 0.04 | 0.0485 ± 0.042 | 0.0185 ± 0.033 | 0.009 ± 0.058 | -0.0135 ± 0.036 | -0.019 ± 0.081 | -0.032 ± 0.0042 | -0.0295 ± 0.11 |
| HDF3CGF:TIMP-1 | -0.033 ± 0.073 | -0.016 ± 0.033 | 0.0035 ± 0.0035 | 0.0055 ± 0.032 | 0.028 | 0.013 ± 0.042 | 0.018 ± 0.05 | 0.092 | 0.0555 ± 0.0021 | 0.017 ± 0.03 | 0.016 ± 0.037 | -0.0995 ± 0.03 | -0.0405 ± 0.037 | 0.0055 ± 0.0092 | -0.0085 ± 0.047 | -0.018 ± 0.0057 | -0.017 ± 0.018 | -0.0265 ± 0.015 | 0.0065 ± 0.08 | 0.005 ± 0.079 |
| BF4T:MMP-3 | -0.004 ± 0.041 | 0.007 ± 0.069 | -0.046 ± 0.03 | -0.029 ± 0.054 | 0.022 ± 0.018 | 0.0035 ± 0.032 | 0.003 ± 0.055 | 0.148 | -0.044 ± 0.0057 | 0.005 ± 0.023 | 0.0215 ± 0.023 | -0.14 ± 0.075 | 0.007 ± 0.035 | 0.015 ± 0.0057 | 0.0075 ± 0.033 | 0.0285 ± 0.0078 | -0.002 ± 0.047 | 0.072 ± 0.027 | 0.0135 ± 0.03 | 0.026 ± 0.017 |
| KF3CT:MMP-9 | 0.0205 ± 0.052 | -0.0155 ± 0.012 | -0.0205 ± 0.035 | -0.0145 ± 0.026 | -0.002 ± 0.02 | -0.006 ± 0.0028 | -0.0275 ± 0.023 | -0.032 | -0.028 ± 0.027 | -0.049 ± 0.0057 | -0.103 ± 0.037 | -0.308 ± 0.0028 | -0.0375 ± 0.019 | -0.0075 ± 0.03 | -0.0235 ± 0.019 | -0.048 ± 0.0071 | -0.051 ± 0.021 | -0.021 ± 0.025 | 0.01 ± 0.051 | 0.0265 ± 0.012 |
| SAg:CD62E/E-Selectin | 0.014 ± 0.0014 | -0.007 ± 0.016 | 0.0105 ± 0.0092 | -0.0095 ± 0.0092 | 0.0005 ± 0.013 | 0.004 ± 0.0014 | 0.0265 ± 0.00071 | -0.049 | -0.0395 ± 0.032 | -0.0105 ± 0.021 | 0.0005 ± 0.015 | 0.0165 ± 0.023 | 0.008 ± 0.018 | 0.0005 ± 0.016 | -0.015 ± 0.013 | 0.0015 ± 0.021 | 0.001 ± 0.0057 | 0.0045 ± 0.0035 | 0.016 ± 0.0071 | -0.009 ± 0.041 |
| LPS:M-CSF | 0.0165 ± 0.016 | 0.026 ± 0.0099 | -0.013 ± 0.031 | 0.008 ± 0.011 | 0.0085 ± 0.012 | -0.0045 ± 0.0078 | -0.011 ± 0.03 | -0.068 | -0.041 ± 0.099 | -0.0135 ± 0.021 | -0.0015 ± 0.015 | -0.0045 ± 0.018 | -0.029 ± 0.014 | 0.014 ± 0.0071 | 0.036 ± 0.041 | 0.005 ± 0.024 | -0.0245 ± 0.043 | -0.0285 ± 0.039 | 0.0285 ± 0.012 | 0.0155 ± 0.08 |
| MyoF:Collagen IV | -0.0155 ± 0.049 | -0.0035 ± 0.012 | -0.01 ± 0.044 | 0.018 ± 0.065 | 0.023 ± 0.028 | 0.0195 ± 0.03 | 0.044 ± 0.018 | 0.117 | 0.0035 ± 0.11 | 0.102 ± 0.018 | 0.334 ± 0.037 | 0.38 ± 0.086 | 0.0255 ± 0.03 | 0.0365 ± 0.011 | 0.0065 ± 0.016 | 0.046 ± 0.11 | 0.0005 ± 0.011 | -0.0225 ± 0.025 | -0.0005 ± 0.018 | -0.0125 ± 0.012 |
| LPS:CD141/Thrombomodulin | -0.0205 ± 0.005 | 0.047 ± 0.027 | -0.023 ± 0.033 | -0.022 ± 0.014 | -0.0105 ± 0.012 | -0.0235 ± 0.0078 | -0.0325 ± 0.022 | -0.01 | 0.0295 ± 0.0064 | -0.015 | 0.0035 ± 0.00071 | 0.002 ± 0.0057 | -0.0225 ± 0.013 | -0.0005 ± 0.0021 | 0.06 ± 0.067 | -0.002 ± 0.0057 | -0.011 ± 0.0057 | 0.047 ± 0.0099 | -0.001 ± 0.04 | 0.025 ± 0.11 |
| HDF3CGF:CXCL11/I-TAC | -0.011 ± 0.037 | -0.0325 ± 0.00071 | -0.0125 ± 0.00071 | -0.018 ± 0.037 | 0.0095 ± 0.021 | 0.024 ± 0.025 | 0.0285 ± 0.029 | -0.119 | 0.009 ± 0.0071 | -0.0015 ± 0.00071 | 0.046 ± 0.0014 | -0.469 ± 0.28 | 0.0045 ± 0.0035 | -0.0025 ± 0.012 | 0.001 ± 0.0014 | -0.01 ± 0.016 | -0.01 ± 0.023 | -0.085 ± 0.034 | -0.0115 ± 0.018 | -0.0085 ± 0.053 |
| CASM3C:IL-6 | 0.0155 ± 0.064 | 0.01 ± 0.03 | 0.046 ± 0.035 | -0.0055 ± 0.032 | 0.0195 ± 0.11 | -0.046 ± 0.023 | -0.041 ± 0.035 | 0.041 | -0.0265 ± 0.044 | -0.0255 ± 0.056 | -0.035 ± 0.037 | -0.0375 ± 0.039 | -0.0305 ± 0.035 | 0.009 ± 0.0057 | 0.007 ± 0.061 | -0.025 ± 0.04 | -0.002 ± 0.013 | 0.017 ± 0.076 | 0.009 ± 0.052 | -0.001 ± 0.042 |

Two entries picked at random from those above, as already listed:

| Test System | level (log10) [1] | level (log10) [2] | level (log10) ([3]; 740 nM) | level (log10) ([3]; 2200 nM) | level (log10) ([4]; 2200 nM) | level (log10) ([4]; 6700 nM) | level (log10) ([4]; 20000 nM) | level (log10) ([4]; 60000 nM) | level (log10) [5] | level (log10) ([6]; 2200 nM) | level (log10) ([6]; 6700 nM) | level (log10) ([6]; 20000 nM) | level (log10) [7] | level (log10) [8] | level (log10) [9] | level (log10) [10] | level (log10) [11] | level (log10) [12] | level (log10) [13] | level (log10) [14] |
| --- | --- | --- | --- | --- | --- | --- | --- | --- | --- | --- | --- | --- | --- | --- | --- | --- | --- | --- | --- | --- |
| LPS:CD141/Thrombomodulin | -0.0205 ± 0.005 | 0.047 ± 0.027 | -0.023 ± 0.033 | -0.022 ± 0.014 | -0.0105 ± 0.012 | -0.0235 ± 0.0078 | -0.0325 ± 0.022 | -0.01 | 0.0295 ± 0.0064 | -0.015 | 0.0035 ± 0.00071 | 0.002 ± 0.0057 | -0.0225 ± 0.013 | -0.0005 ± 0.0021 | 0.06 ± 0.067 | -0.002 ± 0.0057 | -0.011 ± 0.0057 | 0.047 ± 0.0099 | -0.001 ± 0.04 | 0.025 ± 0.11 |
| HDF3CGF:CD106/VCAM-1 | -0.057 ± 0.072 | -0.0025 ± 0.063 | 0.0005 ± 0.005 | 0.006 ± 0.023 | -0.037 ± 0.0099 | -0.0215 ± 0.013 | -0.132 ± 0.018 | -0.214 | -0.02 ± 0.0099 | -0.099 ± 0.073 | -0.0085 ± 0.026 | -0.623 ± 0.057 | -0.106 ± 0.11 | -0.0335 ± 0.05 | -0.001 ± 0.021 | -0.0175 ± 0.029 | -0.0555 ± 0.059 | -0.0395 ± 0.04 | -0.023 ± 0.014 | 0.0005 ± 0.021 |

— the supplement of paper PMC10331698
